For part of these data: Strings that start with PEPTIDE1 are HELM notation: dots part the residues, brackets hold end groups and non-standard residues. Residues, ends and D or L forms follow the SMILES beside them.

The nature of the first data set: Label-free MST, peptide binding to 100 nm vesicles. The following applies: curved LUVs by MST versus planar lipid conditions. From the text:
For KD evaluation by MST, FHot was registered during the temperature related intensity change (TRIC) phase of the MST trace (see “Methods”). The advantage of evaluating KD during the TRIC phase is that any potential effects of prolonged heating on the thermostability of the sample that may influence the binding can be avoided. The dose–response profile of MST response against lipid concentration for 1–5 largely follows a sigmoidal curve shape (Fig. 3A,B).
DMPC and DMPC:5% DMPG vesicles were prepared by solubilising a known weight of lipid in chloroform with a small amount of methanol to assist in the dissolution of the PG lipid head groups. The chloroform stock was dried in vacuo to produce a lipid film, which was further dried for additional 3 h. The lipid film was solubilised in 10 mM TRIS buffer (pH 7.4) containing 100 mM NaCl to yield a 20 mM milky lipid stock.
To produce the working vesicle stock, 1 mL of vesicle stock was extruded 20 times through a 0.1 µm filter using an Avanti Lipids mini-extruder. Vesicle size was confirmed using a Malvern Zetasizer Nano ZS (Malvern Panalytical Ltd, Malvern, United Kingdom).
All MST measurements were conducted on a NanoTemper Monolith NT. Labelfree instrument, using Monolith NT. Labelfree standard treated zero background capillaries. […]
MST measurements were conducted with excitation power set to 15%, with the MST power set to high. […] For the evaluation of KP, the initial fluorescence was taken as the value reported during the period before the application of the laser. The MST response and initial fluorescence were extracted directly as a text file for further processing in MATLAB.
In a typical binding experiment that yields a sigmoidal curve, the Hill equation can be fitted to yield KD:[66]6 y=y0+EMaxLipid^n/KDn+Lipid^n where y is the MST response, y0 is the MST response of the AMP in an aqueous solution (i.e., in the absence of lipids), n is the Hill coefficient, and EMax is the maximal effect of the tested substrate. […] Erroneous points were identified by poor MST trace shapes or higher than expected initial fluorescence that was absent in the other replicates or subsequent points, but otherwise no further treatment of data was necessary. […]
The Kp of a molecule can be determined experimentally by observing changes in fluorescent intensity in the presence of an increasing concentration of lipid, and fitting to Eq. (8)[43].8 I/Iaq=1+KpVmLipidIL/Iaq/1+KPVmLipid
In Eq. (8) the fluorescence intensity of the AMP (I) is normalised to the fluorescence intensity of the AMP in an aqueous environment (Iaq), Vm is the molar volume of the lipids and IL is the fluorescence intensity of the AMP in the lipidic environment. […]
`N=C(N)NCCC[C@@H]1NC(=O)[C@H](CCCNC(=N)N)NC(=O)[C@H](Cc2c[nH]c3ccccc23)NC(=O)[C@H](Cc2c[nH]c3ccccc23)NC(=O)[C@H](Cc2c[nH]c3ccccc23)NC(=O)[C@H](CCCNC(=N)N)NC1=O` [compound 1] (cyclo(WWWRRR)): the “improvement in binding (KD) to LUVs compared with planar lipid conditions (SPR and SMA-QA)” value was “tenfold”.

Take `N=C(N)NCCC[C@@H]1NC(=O)[C@H](Cc2c[nH]c3ccccc23)NC(=O)[C@H](CCCNC(=N)N)NC(=O)[C@H](Cc2c[nH]c3ccccc23)NC(=O)[C@H](CCCNC(=N)N)NC(=O)[C@H](Cc2c[nH]c3ccccc23)NC1=O` [compound 2] (cyclo(WRWRWR)): the “improvement in binding (KD) to LUVs compared with planar lipid conditions (SPR and SMA-QA)” value is “fourfold”.

As for `NCCCC[C@@H]1NC(=O)[C@H](CCCCN)NC(=O)[C@H](Cc2c[nH]c3ccccc23)NC(=O)[C@H](Cc2c[nH]c3ccccc23)NC(=O)[C@H](Cc2c[nH]c3ccccc23)NC(=O)[C@H](CCCCN)NC1=O` [compound 3] (cyclo(WWWKKK)), the “improvement in binding (KD) to LUVs compared with planar lipid conditions (SPR and SMA-QA)” value is recorded as “tenfold”. Same read-out and setting: in the case of `NCCCC[C@@H]1NC(=O)[C@H](Cc2c[nH]c3ccccc23)NC(=O)[C@H](CCCCN)NC(=O)[C@H](Cc2c[nH]c3ccccc23)NC(=O)[C@H](CCCCN)NC(=O)[C@H](Cc2c[nH]c3ccccc23)NC1=O` [compound 4] (cyclo(WKWKWK)) it was “fourfold”.

Another data set in a line: general procedure: Fmoc solid-phase peptide synthesis; 2-chlorotrityl chloride resin; HBTU/HOBt/DIEA. The note with it: cyclisation step, relative to linear precursor.
For “PEPTIDE1{L.W.[dW].N.K.[dR]}$PEPTIDE1,PEPTIDE1,1:R1-6:R2$$$V2.0”, the cyclisation yield is reported as 44.9%. “PEPTIDE1{W.K.W.K.W.K}$PEPTIDE1,PEPTIDE1,1:R1-6:R2$$$V2.0” showed a cyclisation yield of 41.8%. Same read-out and setting: as for “PEPTIDE1{W.R.W.R.W.R}$PEPTIDE1,PEPTIDE1,1:R1-6:R2$$$V2.0”, the figure is 22.6%. On the same count and under the same terms, as for “PEPTIDE1{W.W.W.K.K.K}$PEPTIDE1,PEPTIDE1,1:R1-6:R2$$$V2.0”, the figure is 39.0%. The same measure, in the same setting: in the case of “PEPTIDE1{W.W.W.R.R.R}$PEPTIDE1,PEPTIDE1,1:R1-6:R2$$$V2.0” it was 30.0%.

For the origin of these results see PMC10400562 (Scientific Reports, 2023).
